# Reference: article PMC5399837
# These are yes or no findings as the source states them, for the method shown. In cells and extracts the contact can be indirect. Here binding means that the protein was enriched with, or labelled near, the bait; the list need not be complete. No binding means not detected with the bait.
# B1: Recombination protein RecR (protein, UniProt Q9JZ92 1-206)
# chain: MMSHKKQDAFQGLIDALKVLPNVGPKSAQRIAYHLLQHKRKEAEKLVDALQTALKQVYHCAMCNTFCEGGLCDICADETRDGRRLMVVHMPADVSNMEAANCHDGLYFVLMGQINTALGMDVSAIALDRLAQRLGGGEVEEIIIATAFTAEGNATAYVLSEFFKNLPYKVSRLSQGIPLGGELEYVDAGTLAQAVYERRLIKEGGA
# B2: DNA repair protein RecO (protein, UniProt Q9K0W0 1-263)
# chain: MSEYRVNHEPVFMLASSPWRESSLWVEAFSRRYGRVALLARSARKRQSELRGVLVPFVPVSVSWYGSQELKTLHRAEWVGGWRQPQGRALFGGLYVNELVLKLTAREDPVPELYDALAEVMEAVCCKAAYIDDLRRFEWRLLNLLGVAPDLNRDGDGGTIAAGGTYLVRPETAVFPVGKGFAVPPHAAGVVAPGQSLIDLREGSFRTAESLQQALKITRLFIRHLLPEGLKSRQVLEQIRQFDRKETARETVPTSDGTASNAV
# B3: PilN protein (protein, UniProt Q4W563 1-199)
# chain: MNNLIKINLLPYREEMNKRKQQQFKTLMYGAVLTGVAAVAATYLFIDNMINNQSERNTLLETSIAHLDTELSEIQKLKQEKDAFLIKKNKIEELQLKRLQAAKILDSLNEAVPGSTYLTSLDAVTADSYRLSGRTSSDNRVAAMMRAMPNTGIFKQPELLSIKKNNSHQEFTLQATLQPIVKAAESKENPASGNAQEAN
# B4: Single-stranded DNA-binding protein (protein, UniProt P66849 1-174)
# chain: MSLNKVILIGRLGRDPEVRYMPNGEAVCNFSVATSETWNDRNGQRVERTEWHNITMYRKLAEIAGQYLKKGGLVYLEGRIQSRKYQGKDGIERTAYDIVANEMKMLGGRNENSGGAPYEEGYGQSQEAYQRPAQQSRQPASDAPSHPQEAPAAPRRQPVPAAAPVEDIDDDIPF
# B5: Pilus assembly protein PilG (protein, UniProt Q7DDR1 1-410)
# chain: MAKNGGFSLFAKKEKRFIFEGRHSASDKLVNGEVSAFTEEEARKKLAKRGIRPLQITRVKTSSKRKITQEDITVFTRQLSTMIKAGLPLMQAFEIVARGHGNPSMTEMLMEIRGEVEQGSSLSRAFSNHPKYFDRFYCNLVAAGETGGVLESLLDKLAIYKEKTQAIRKKVKTALTYPVSVIAVAIGLVFVMMIFVLPAFKEVYANMGAELPALTQTVMDMSDFFVSYGWMVLIALGFAIYGFLKLKARSIKIQRRMDAILLRMPIFGDIVRKGTIARWGRTTATLIAAGVPLVDVLDSTAGAAGNLIYEEATREIRTRVIQGLSMTSGMRATELFPNMMLQMSSIGEESGSLDDMLNKAAEFYEDEVDNAVGRLSAMMEPIIIVILGLVIGTLLVAMYLPLFNLGNVVA
# B6: Twitching motility protein PilT (protein, UniProt Q7DDU1 1-347)
# chain: MQITDLLAFGAKNKASDLHLSSGISPMIRVHGDMRRINLPEMSAEEVGNMVTSVMNDHQRKIYQQNLEVDFSFELPNVARFRVNAFNIGRGPAAVFRTIPSTVLSLEELKAPSIFQKIAESPRGMVLVTGPTGSGKSTTLAAMINYINETQPAHILTIEDPIEFVHQSKKSLINQRELHQHTLSFANALRSALREDPDVILVGEMRDPETIGLALTAAETGHLVFGTLHTTGAAKTVDRIVDVFPAGEKEMVRSMLSESLTAVISQNLLKTHDGNGRVASHEILIANPAVRNLIRENKITQINSVLQTGQASGMQTMDQSLQSLVRQGLIAPEVARRRAQNSESMSF
# B7: Type IV pilus biogenesis and competence protein PilQ (protein, UniProt Q70M91 25-769)
# chain: GNITDIKVSSLPNKQKIVKVSFDKEIVNPTGFVTSSPARIALDFEQTGISMDQQVLEYADPLLSKISAAQNSSRARLVLNLNKPGQYNTEVRGNKVWIFINESDDTVSAPARPAVKAAPAAPAKQQAAAPSTKSAVSVSEPFTPAKQQAAAPFTESVVSVSAPFSPAKQQAAASAKQQAAAPAKQQAAAPAKQQAAAPAKQTNIDFRKDGKNAGIIELAALGFAGQPDISQQHDHIIVTLKNHTLPTTLQRSLDVADFKTPVQKVTLKRLNNDTQLIITTAGNWELVNKSAAPGYFTFQVLPKKQNLESGGVNNAPKTFTGRKISLDFQDVEIRTILQILAKESGMNIVASDSVNGKMTLSLKDVPWDQALDLVMQARNLDMRQQGNIVNIAPRDELLAKDKALLQAEKDIADLGALYSQNFQLKYKNVEEFRSILRLDNADTTGNRNTLISGRGSVLIDPATNTLIVTDTRSVIEKFRKLIDELDVPAQQVMIEARIVEAADGFSRDLGVKFGATGKKKLKNDTSAFGWGVNSGFGGDDKWGAETKINLPITAAANSISLVRAISSGALNLELSASESLSKTKTLANPRVLTQNRKEAKIESGYEIPFTVTSIANGGSSTNTELKKAVLGLTVTPNITPDGQIIMTVKINKDSPAQCASGNQTILCISTKNLNTQAMVENGGTLIVGGIYEEDNGNTLTKVPLLGDIPVIGNLFKTRGKKTDRRELLIFITPRIMGTAGNSLRY
# B8: Cell division protein FtsZ (protein, UniProt P0A0S6 1-392)
# chain: MEFVYDVAESAVSPAVIKVIGLGGGGCNAINNMVANNVRGVEFISANTDAQSLAKNHAAKRIQLGTNLTRGLGAGANPDIGRAAAQEDREAIEEAIRGANMLFITTGMGGGTGTGSAPVVAEIAKSLGILTVAVVTRPFAYEGKRVHVAQAGLEQLKEHVDSLIIIPNDKLMTALGEDVTMREAFRAADNVLRDAVAGISEVVTCPSEIINLDFADVKTVMSNRGIAMMGSGYAQGIDRARMATDQAISSPLLDDVTLDGARGVLVNITTAPGCLKMSELSEVMKIVNQSAHPDLECKFGAAEDETMSEDAIRITIIATGLKEKGAVDFVPAREVEAVAPSKQEQSHNVEGMIRTNRGIRTMNLTAADFDNQSVLDDFEIPAILRRQHNSDK
# B9: Cell division protein FtsA (protein, UniProt Q9K0X8 1-414)
# chain: MEQQQRYISVLDIGTSKVLALIGEVQDDDKINIVGLGQAPSRGLRAGMVTNIDATVQAIRQAVNDAELMADTKITHVTTGIAGNHIRSLNSQGVVKIKDGEVTQADIDRAIETAKAINIPPDQKILDAVVQDYIIDTQLGVREPIGMSGVRLDTRVHIITGASTAVQNVQKCIERCGLKSDQIMLQPLASGQAVLTEDEKDLGVCVIDIGGGTTDIAVYMNGAIRHTSVIPAGGNLITKDLSKSLRTPLDAAEYIKIHYGVASCDTEGLGEMIEVPGVGDRTSRQVSSKVLAAIISARIQEIFGVVLGELQKSGFPKEVLNAGIVLTGGVSMMTGIVEFAEKIFDLPVRTGAPQEMGGLSDRVRTPRFSTAIGLLHAACKLEGNLPQPENGAVQEREGGGGLLARLKRWIENSF
# B10: DNA topoisomerase 1 (enzyme, UniProt Q9K1K0 1-768)
# chain: MAKNLLIVESPSKAKTLKKYLGGDFEILASYGHVRDLVPKSGAVDPDNGFAMKYQLISRNGKHVDAIVAGAKEAENIYLATDPDREGEAISWHLLEILKSKRGLKNIKPQRVVFHEITKNAVLDAVAHPREIEMDLVDAQQARRALDYLVGFNLSPLLWKKIRRGLSAGRVQSPALRLICERENEIRAFEAQEYWTVHLDSHKGRSKFTAKLAQYNGAKLEQFDLPNEAAQADVLKELEGKEAVVTAIEKKKRSRNPAAPFTTSTMQQDAVRKLGFTTDRTMRTAQQLYEGIDVGQGAIGLITYMRTDSVNLADEALTEIRHYIENKIGKEYLPSAAKQYKTKSKNAQEAHEAIRPTSVYRTPESVKPFLSADQFKLYQMIWQRTVACQMTPAKFDQTTVDITVGKGVFRVTGQVQTFAGFLSVYEESSDDEEGEDSKKLPEMSEGDKLPVDKLYGEQHFTTPPPRYNEATLVKALEEYGIGRPSTYASIISTLKDREYVTLEQKRFMPTDTGDIVNKFLTEHFAQYVDYHFTAKLEDQLDEIADGKRQWIPLMDKFWKPFIKQVEEKEGIERAKFTTQELDETCPKCGEHKLQIKFGKMGRFVACAGYPECSYTRNVNETAEEAAERIAKAEAEQAELDGRECPKCGGRLVYKYSRTGSKFIGCVNYPKCKHVEPLEKPKDTGVQCPQCKKGNLVERKSRYGKLFYSCSTYPDCNYATWNPPVAEECLNCHWPVLTIKTTKRWGVEKVCPQKECGWKEQIEPPAPKE
# B11: Protein RecA (protein, UniProt P0DH59 1-348)
# chain: MSDDKSKALAAALAQIEKSFGKGAIMKMDGSQQEENLEVISTGSLGLDLALGVGGLPRGRIVEIFGPESSGKTTLCLEAVAQCQKNGGVCAFVDAEHAFDPVYARKLGVKVEELYLSQPDTGEQALEICDTLVRSGGIDMVVVDSVAALVPKAEIEGDMGDSHVGLQARLMSQALRKLTGHIKKTNTLVVFINQIRMKIGVMFGSPETTTGGNALKFYSSVRLDIRRTGSIKKGEEVLGNETRVKVIKNKVAPPFRQAEFDILYGEGISWEGELIDIGVKNDIINKSGAWYSYNGAKIGQGKDNVRVWLKENPEVANEIDAKIRALNGVEMHITEGTQDETDGERPEE
# B12: Fimbrial protein; PilS cassette (protein, UniProt P05431 8-170)
# chain: FTLIELMIVIAIVGILAAVALPAYQDYTARAQVSEAILLAEGQKSAVTEYYLNHGEWPGNNTSAGVATSSEIKGKYVKSVEVKNGVVTAQMASSNVNNEIKGKKLSLWAKRQNGSVKWFCGQPVTRDKAKAANDDVTAAAAANGKKIDTKHLPSTCRDASDAS
# Target: T1, Fimbrial protein; PilS cassette (Neisseria meningitidis (endogenous in strain MC58)) (UniProt P05431)
# T1 sequence: B12 chain
# Assay: affinity purification with mass spectrometry; Co-IP with rabbit polyclonal antibody raised against purified Tfp (PilE), Dynabeads Co-Immunoprecipitation Kit, Nm MC58 wildtype lysate; eluate digested in solution with trypsin, LC-MS/MS
row,Binder,binding
1,B1,no binding
2,B2,no binding
3,B3,binds
4,B4,binds
5,B5,binds
6,B6,binds
7,B7,no binding
8,B8,no binding
9,B9,no binding

# Target: DNA processing chain A (Neisseria meningitidis (endogenous in strain MC58)) (UniProt Q9K1K1)
# Assay: affinity purification with mass spectrometry; Dynabeads coupled to rabbit polyclonal anti-DprA antibody, incubated with Nm MC58 wildtype lysate (100 mM NaCl, 2 mM MgCl, 1 mM DTT, 1% DDM) at 4 °C for 1.5 h; eluate digested in solution with trypsin, LC-MS/MS; ΔdprA lysate as control
row,Binder,binding
1,B1,binds
2,B2,binds
3,B10,binds
4,B3,binds
5,B4,binds
6,B6,no binding
7,B7,binds
8,B8,binds
9,B11,no binding

# Target: T2, Pilus assembly protein PilG (Neisseria meningitidis (endogenous in strain MC58)) (UniProt Q7DDR1)
# T2 sequence: B5 chain
# Assay: affinity purification with mass spectrometry; Dynabeads coupled to rabbit polyclonal anti-PilG antibody, incubated with Nm MC58 wildtype lysate (100 mM NaCl, 2 mM MgCl, 1 mM DTT, 1% DDM) at 4 °C for 1.5 h; eluate digested in solution with trypsin, LC-MS/MS; ΔpilG lysate as control
row,Binder,binding
1,B1,no binding
2,B2,no binding
3,B12,binds
4,B3,binds
5,B4,binds
6,B7,no binding
7,B8,no binding
8,B9,no binding
